Source: PubChem BioAssay AID540303 (National Center for Advancing Translational Sciences (NCATS), 2011)
The whole screen tested about 330,000 compounds, of which about 1,000 (0.3%) were called active. The inconclusive results got no clear call from the source; some entries with a clear call stand among them for comparison. The call rests on the fitted dose curve; in most records, active means well fitted inhibition curve with a large enough effect; inconclusive means small, poorly fitted or top-dose-only effect; inactive means no such curve, though single readings can be large or run the other way; tested in mouse RAW 264.7 cells. A potency beside an inconclusive call is a rough fit, not a confirmed value.

test: qHTS for Inhibitors of Cell Surface uPA Generation; settings: cell surface uPA generation assay; series mostly up to 38.3 µM; activity change, negative = inhibition: at the top concentration; further: nearly all actives have a fitted effect of over 55% in size
How it was run: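 Using RAW 264.7 macrophages, the screen measures whether compounds keep cellular ATP up by preventing uPA-driven LF translocation. Treatment lasted 24 h at 37 C, with a final top concentration of 38.3 uM, and luminescence was the readout.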
On the % scale 0 is the no-effect control and ±100 the full control effect; potency means the concentration at half of the fitted maximal effect.

Row | Compound | activity change, negative = inhibition | Potency
1 | CCOC(=O)C(=O)Nc1ccc(Oc2ccccc2)cc1 | inactive: 4.33% | 
2 | Cc1ccc2nsnc2c1NC(=O)c1ccc([N+](=O)[O-])cc1 | inactive: -3.02% | 
3 | COc1ccc(/C(C)=N/N2CCCCC2)c(O)c1 | inactive: 17.8% | 
4 | CC1CCCN(CC(O)COc2ccc(S(=O)(=O)N3CCCC3)cc2[N+](=O)[O-])C1 (stereo unspecified) |  | inconclusive: 2.51 µM [inhibitor, full curve]
5 | Cc1ccc(NC(=O)Cn2c(=O)cnc3ccccc32)cc1S(=O)(=O)N1CCCCC1 |  | inconclusive: 7.08 µM [inhibitor, partial curve, poor fit]
6 | CCOC(=O)c1c(NC(=O)c2nn(C)cc2[N+](=O)[O-])sc(C)c1C | inactive: 0.566% | 
7 | CC[C@H](C)/C=C/C1=CC2=C(Cl)C(=O)[C@@]3(C)OC(=O)C(C(=O)[C@H](C)[C@@H](C)O)=C3C2=CO1 |  | inconclusive: 12.6 µM [inhibitor, partial curve, poor fit]
8 | CC(C)C[C@H](NC(=O)c1[nH]cnc1C(=O)N[C@@H](C)C(=O)OC(C)(C)C)C(=O)OC(C)(C)C |  | inconclusive: 3.98 µM [inhibitor, partial curve]
9 | COc1ccc(Oc2nc(-c3ccncc3)nc3ccccc23)cc1 | inactive: -1.08% | 
10 | CCOC(=O)c1ccc(NC(=O)c2nc[nH]c2C(=O)N[C@H](C)c2ccccc2)cc1 |  | inconclusive: 7.94 µM [inhibitor, single point]
11 | Nc1c(C(=O)CSc2nc3ccccc3o2)c(=O)[nH]c(=O)n1C1CC1 |  | inconclusive: 6.31 µM [inhibitor, partial curve, poor fit]
12 | CCc1ccccc1Nc1nc2ccccc2[nH]1 |  | inconclusive: 12.6 µM [inhibitor, single point]
13 | Clc1ccc(-n2ncc3c(NCC4CCCO4)ncnc32)cc1 (stereo unspecified) |  | active: 10 µM
14 | COc1ccc(C2=Nn3c(nnc3-c3ccccc3F)SC2)cc1OC1CCOC1 (stereo unspecified) |  | inconclusive: 2.82 µM [inhibitor, full curve]
15 | N/C(=N\OC(=O)COc1ccc(Cl)cc1Cl)c1ccncc1 |  | inconclusive: 5.01 µM [inhibitor, partial curve, poor fit]
16 | CCCc1cc(-c2nc(-c3ccc(C)cc3)cs2)ccn1 |  | inconclusive: 6.31 µM [inhibitor, partial curve]
17 | Cc1ccc(/C=C/S(=O)(=O)NCC(=O)OCC(=O)Nc2c(F)cccc2F)cc1 |  | inconclusive: 1.78 µM [inhibitor, partial curve, poor fit]
18 | Nc1nc(Cl)nc2c1ncn2[C@H]1C[C@H](O)[C@@H](CO)O1 |  | active: 0.316 µM
19 | COc1ccc(C(=O)c2ccccc2)c(OCC(=O)NC2CC2)c1 | inactive: 3.4% | 
20 | COc1ccc(C(=O)C2CCCN(C(=O)CCc3ccccn3)C2)c(C)c1 (stereo unspecified) |  | inconclusive: 2.82 µM [inhibitor, full curve, poor fit]
21 | Nc1c(C2CCCCC2)c(=O)on1C(=O)c1ccccc1 | inactive: -1.23% | 
22 | Nc1cc(=O)[nH]c(SCC(=O)Nc2cccc(S(=O)(=O)N3CCCCC3)c2)n1 | inactive: 0.355% | 

Row | Compound | activity change, negative = inhibition | Potency
23 | COCc1nnc(NC(=O)c2ccc(S(=O)(=O)N(CC(C)C)CC(C)C)cc2)o1 |  | inconclusive: 12.6 µM [inhibitor, single point]
24 | CCOC(=O)c1cnc2c(C)cc(C)cc2c1NCCCN1CCOCC1 |  | inconclusive: 12.6 µM [inhibitor, partial curve, poor fit]
25 | N#C/C(=C\c1cccs1)C(=O)NCc1ccccc1 | inactive: 5.49% | 
26 | COCCC(=O)N1CCC(Oc2ccc(C(=O)NCCCC3CCCC3)cc2)CC1 |  | inconclusive: 7.94 µM [inhibitor, partial curve, poor fit]
27 | Nc1n[nH]c(N)c1N=Nc1cccc(C(F)(F)F)c1 |  | inconclusive: 11.2 µM [inhibitor, single point]
28 | Cc1c(Cl)cccc1NC(=O)C1NC(=O)CC1c1ccccc1 (stereo unspecified) |  | inconclusive: 0.316 µM [inhibitor, full curve, poor fit]
29 | COc1ccc(/C=C2\SC(=O)N=C2N)cc1OC |  | inconclusive: 14.1 µM [inhibitor, partial curve, poor fit]
30 | O=C(Nc1ccc(-c2nc3ccccc3[nH]2)cc1)C1CCCO1 (stereo unspecified) |  | inconclusive: 3.55 µM [inhibitor, full curve]
31 | c1ccc(-c2cc3ccccc3cn2)cc1 |  | inconclusive: 10 µM [inhibitor, partial curve, poor fit]
32 | CCOc1ccccc1NC(=O)C1COc2ccccc2O1 (stereo unspecified) |  | inconclusive: 11.2 µM [inhibitor, partial curve, poor fit]
33 | Cc1cc(C)cc(OCC(=O)NNC(=O)c2ccccn2)c1 |  | inconclusive: 10 µM [inhibitor, single point]
34 | Cc1ccc(C(=O)N/N=C\c2cccnc2)s1 |  | inconclusive: 10 µM [inhibitor, partial curve]
35 | COCCCNc1ncnc2c1sc1nc(-c3ccco3)c3c(c12)CC(C)(C)OC3 |  | inconclusive: 7.08 µM [inhibitor, partial curve, poor fit]
36 | O=[N+]([O-])c1ccc(COc2cccc(CN3CCOCC3)c2)cc1 |  | inconclusive: 1 µM [inhibitor, partial curve, poor fit]
37 | O=CN1CCN(C(=O)c2ccc(-c3nc4ccccc4s3)s2)CC1 |  | inconclusive: 8.91 µM [inhibitor, partial curve]
38 | COc1ccc(-c2cn3nc(SCC(=O)NCC4CCCO4)ccc3n2)cc1 (stereo unspecified) |  | inconclusive: 3.98 µM [inhibitor, partial curve, poor fit]
39 | O=C(Nc1nonc1NC(=O)c1cccs1)c1cccs1 | inactive: -9.53% | 
40 | c1ccc(-c2nnnn2-c2ccccc2)cc1 | inactive: 6.37% | 
41 | Cc1cc(C(=O)N/N=C/c2ccc3c(c2)OCO3)c2ccccc2n1 |  | inconclusive: 2 µM [inhibitor, full curve, poor fit]
42 | O=C(Nc1nnc(-c2ccc3c(c2)CCCC3)o1)c1ccc(Cl)cc1Cl |  | inconclusive: 28.2 µM [inhibitor, single point]
43 | O=C(N/N=C/c1ccc(Cl)cc1)c1ccc2c(c1)OCO2 |  | inconclusive: 3.55 µM [inhibitor, partial curve, poor fit]
44 | Cc1ccc(NC(=O)c2cnccn2)cc1C |  | inconclusive: 5.01 µM [inhibitor, partial curve, poor fit]

Row | Compound | activity change, negative = inhibition | Potency
45 | CN(CC(=O)Nc1ccc(S(=O)(=O)N2CCCC2)cc1)Cc1cccc(Cl)c1Cl | inactive: -8.89% | 
46 | COc1ccc2c(c1)[C@H]1[C@H](CO2)[C@H](c2ccccc2)[C@]2(C)C(=O)Nc3cc(F)c(F)cc3C(=O)N12 |  | inconclusive: 12.6 µM [inhibitor, single point]
47 | CN(C)c1nc(N)c([N+](=O)[O-])c(NCCO)n1 | inactive: -2.48% | 
48 | O=C(Cn1c(=O)c2cccn2c2cccnc21)N1CCN(c2ccc(Cl)cc2)CC1 |  | inconclusive: 22.4 µM [inhibitor, single point]
49 | Cc1ccccc1S(=O)(=O)N1C[C@H]2CON(C)[C@H]2C[C@H]1c1cccc(N2CCOCC2)c1 | inactive: 1.55% | 
50 | Oc1ccc(C[C@H]2CNC(=S)N2CC2CCCN2C[C@H](Cc2ccc(O)cc2)N2C[C@H](Cc3ccc(O)cc3)N(CC3CCCCCC3)C2=S)cc1 (stereo partly specified) |  | inconclusive: 28.2 µM [inhibitor, single point]
51 | Cc1ccc(CNC(=O)CCc2c(C)nc3c(c(C)nn3-c3ccc(C)cc3)c2C)cc1 |  | inconclusive: 11.2 µM [inhibitor, partial curve, poor fit]
52 | CC(=O)N1[C@@H]2CC3C4CC=C5C[C@@H](O)CC[C@]5(C)C4CC[C@]3(C)[C@@]21C(C)=O (stereo partly specified) | inactive: -0.328% | 
53 | Cc1cc(NC(=O)CSc2c3c(nc4ccccc24)CCC3)no1 |  | inconclusive: 6.31 µM [inhibitor, partial curve, poor fit]
54 | COc1ccc(NC(=O)CSc2nc3ccccc3c(=O)[nH]2)cc1S(N)(=O)=O |  | inconclusive: 8.91 µM [inhibitor, single point]
55 | CC(=O)c1ccc(N2CCc3ccccc3C2)c([N+](=O)[O-])c1 |  | inconclusive: 11.2 µM [inhibitor, single point]
56 | CC(C)(C)OC(=O)N1CCC(C(=O)Nc2ccc(C(=O)NCc3ccccc3)cc2)CC1 | inactive: -15.7% | 
57 | CC1(C)S[C@@H]2[C@H](NC(=O)[C@H](N)c3ccc(O)cc3)C(=O)N2[C@H]1C(=O)O |  | inconclusive: 1.41 µM [inhibitor, single point]
58 | CCOC(=O)N1CCN(CC(=O)Nc2sccc2C#N)CC1 |  | active: 11.2 µM
59 | CCc1nnc(NC(=O)c2ccc(S(=O)(=O)N3CCCc4ccccc43)cc2)o1 |  | inconclusive: 3.98 µM [inhibitor, partial curve, poor fit]
60 | CCCn1c(SC(C)C(=O)O)nc2ccccc21 (stereo unspecified) | inactive: 4.48% | 
61 | CCOCCCNC(=O)CN1C(=O)COc2ccc(S(=O)(=O)N3CCC(C)CC3)cc21 |  | inconclusive: 2.82 µM [inhibitor, partial curve, poor fit]
62 | COc1cc2c(c(OC)c1OC)-c1c(cc3c(c1O)OCO3)C[C@@H](C)[C@@H](C)C2 |  | active: 11.2 µM
63 | O=C(NCC1COc2ccccc2O1)c1ccc(Cl)c(S(=O)(=O)N2CCOCC2)c1 (stereo unspecified) |  | inconclusive: 12.6 µM [inhibitor, single point]
64 | COc1cc(OC)cc(C(=O)NCC(=O)N2CC=C(c3ccccc3)CC2)c1 |  | active: 4.47 µM
65 | COc1ccc(NC(=O)c2ccc(Cl)nc2)cc1S(=O)(=O)N1CCOCC1 |  | inconclusive: 7.08 µM [inhibitor, partial curve, poor fit]
66 | CCOc1ccc(N(C(C)C(=O)Nc2ccc(OC)cc2)S(C)(=O)=O)cc1 (stereo unspecified) | inactive: 5.76% | 

Look-ups from above:
For Potency, `CCOC(=O)c1cnc2c(C)cc(C)cc2c1NCCCN1CCOCC1` shows inconclusive: 12.6 µM [inhibitor, partial curve, poor fit]
For Potency, `O=C(NCC1COc2ccccc2O1)c1ccc(Cl)c(S(=O)(=O)N2CCOCC2)c1` (stereo unspecified) shows inconclusive: 12.6 µM [inhibitor, single point]
For activity change, negative = inhibition, `Cc1ccc2nsnc2c1NC(=O)c1ccc([N+](=O)[O-])cc1` shows inactive: -3.02%
